Three substances from article PMC10334825 can be followed below.

Chains of the proteins cited; added tags and fusions are not shown.
UniProt Q13547: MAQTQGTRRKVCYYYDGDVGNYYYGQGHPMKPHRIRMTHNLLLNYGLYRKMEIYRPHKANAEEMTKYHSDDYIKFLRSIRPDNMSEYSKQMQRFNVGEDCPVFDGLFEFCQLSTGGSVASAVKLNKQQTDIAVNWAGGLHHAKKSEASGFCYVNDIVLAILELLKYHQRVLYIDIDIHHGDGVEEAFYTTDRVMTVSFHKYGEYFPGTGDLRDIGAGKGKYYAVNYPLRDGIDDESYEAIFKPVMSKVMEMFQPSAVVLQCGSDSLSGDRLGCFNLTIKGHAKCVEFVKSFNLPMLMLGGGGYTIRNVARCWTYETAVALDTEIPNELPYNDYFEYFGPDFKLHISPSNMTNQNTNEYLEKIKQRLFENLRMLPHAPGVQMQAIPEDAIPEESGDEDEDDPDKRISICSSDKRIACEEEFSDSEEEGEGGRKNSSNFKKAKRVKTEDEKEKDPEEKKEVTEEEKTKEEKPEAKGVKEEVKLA
UniProt O09106: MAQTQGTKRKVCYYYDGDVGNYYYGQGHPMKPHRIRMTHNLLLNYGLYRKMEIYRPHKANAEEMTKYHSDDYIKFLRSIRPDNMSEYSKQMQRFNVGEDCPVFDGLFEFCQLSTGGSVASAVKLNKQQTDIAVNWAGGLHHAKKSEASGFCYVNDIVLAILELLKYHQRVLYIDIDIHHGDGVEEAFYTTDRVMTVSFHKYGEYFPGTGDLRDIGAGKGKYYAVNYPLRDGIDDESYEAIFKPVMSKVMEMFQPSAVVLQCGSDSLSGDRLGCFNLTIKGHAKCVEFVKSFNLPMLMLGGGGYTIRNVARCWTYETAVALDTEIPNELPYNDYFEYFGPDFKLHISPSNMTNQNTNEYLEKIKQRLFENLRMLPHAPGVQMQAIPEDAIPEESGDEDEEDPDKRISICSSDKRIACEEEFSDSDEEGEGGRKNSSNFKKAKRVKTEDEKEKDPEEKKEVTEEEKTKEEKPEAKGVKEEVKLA

The target of assay [1] is T1, RNF157 (RING finger 157), endogenous, human CD4+ T cells (human (endogenous in human CD4+ T cells)) (UniProt Q96PX1).
T1 sequence: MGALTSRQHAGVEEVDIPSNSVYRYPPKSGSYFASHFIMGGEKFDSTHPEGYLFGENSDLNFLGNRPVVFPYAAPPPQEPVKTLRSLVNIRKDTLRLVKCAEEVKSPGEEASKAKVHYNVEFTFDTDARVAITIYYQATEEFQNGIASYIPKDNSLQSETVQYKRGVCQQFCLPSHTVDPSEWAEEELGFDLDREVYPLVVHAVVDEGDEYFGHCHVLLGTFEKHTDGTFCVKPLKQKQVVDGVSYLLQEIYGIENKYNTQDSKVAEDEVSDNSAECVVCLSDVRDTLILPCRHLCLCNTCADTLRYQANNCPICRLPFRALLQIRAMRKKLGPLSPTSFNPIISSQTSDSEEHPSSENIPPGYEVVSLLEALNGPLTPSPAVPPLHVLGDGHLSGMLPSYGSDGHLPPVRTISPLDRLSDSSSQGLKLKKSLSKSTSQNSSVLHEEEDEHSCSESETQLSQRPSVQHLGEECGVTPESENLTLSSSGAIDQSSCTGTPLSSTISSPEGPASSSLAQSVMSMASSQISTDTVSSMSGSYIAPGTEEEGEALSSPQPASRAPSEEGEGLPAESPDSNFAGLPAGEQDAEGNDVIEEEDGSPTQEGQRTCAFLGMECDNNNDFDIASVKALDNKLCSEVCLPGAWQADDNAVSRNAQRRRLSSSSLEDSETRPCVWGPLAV
Kind of assay: co-IP; endogenous proteins in human CD4+ T cells; Nonidet P-40 lysis buffer (150 mM NaCl, 1 mM EDTA, 1% NP-40), protein G Sepharose beads, washes with lysis buffer containing 500 mM NaCl, immunoblot. (In general: In western blotting, separated proteins are transferred to a membrane and probed.)

The target of assay [2] is T2, Flag-RNF157 (mouse), retrovirally expressed in mouse CD4+ T cells (mouse) (UniProt Q3TEL6).
T2 sequence: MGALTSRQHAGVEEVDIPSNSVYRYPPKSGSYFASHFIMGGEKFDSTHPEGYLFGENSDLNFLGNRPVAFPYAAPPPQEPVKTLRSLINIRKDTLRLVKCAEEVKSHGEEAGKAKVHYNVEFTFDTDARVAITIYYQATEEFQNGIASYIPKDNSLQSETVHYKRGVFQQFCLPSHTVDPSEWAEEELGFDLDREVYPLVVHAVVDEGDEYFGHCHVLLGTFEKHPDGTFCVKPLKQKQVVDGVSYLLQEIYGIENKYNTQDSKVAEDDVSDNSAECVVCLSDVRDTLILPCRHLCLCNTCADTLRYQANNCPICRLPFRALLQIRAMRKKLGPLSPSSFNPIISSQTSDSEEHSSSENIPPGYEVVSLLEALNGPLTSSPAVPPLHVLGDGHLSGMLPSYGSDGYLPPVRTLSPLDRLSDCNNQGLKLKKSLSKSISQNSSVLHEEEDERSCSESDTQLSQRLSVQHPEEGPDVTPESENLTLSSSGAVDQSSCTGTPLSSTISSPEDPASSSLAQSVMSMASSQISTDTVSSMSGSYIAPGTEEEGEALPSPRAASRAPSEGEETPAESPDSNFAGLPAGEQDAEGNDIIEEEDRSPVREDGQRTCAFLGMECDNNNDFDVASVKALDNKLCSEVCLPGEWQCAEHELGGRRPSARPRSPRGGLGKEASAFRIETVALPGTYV
Kind of assay: co-IP; mouse naive CD4+ T cells infected with retrovirus expressing Flag-RNF157, stimulated with anti-CD3 plus anti-CD28 for 12 h; IP with Flag antibody, immunoblot; washes with 500 mM NaCl.

For assay [3], the target named is T3, Flag-RNF157 (mouse), transfected in HEK293 cells (mouse) (UniProt Q3TEL6).
T3 sequence: T2 sequence
Kind of assay: co-IP; HEK293 cells transfected with indicated plasmids for 24 h; Nonidet P-40 lysis buffer (150 mM NaCl, 1 mM EDTA, 1% NP-40), protein G Sepharose beads, washes with 500 mM NaCl, immunoblot.

These are yes or no findings as the source states them, for the method shown. Binding seen in cells or lysates may run through a third protein. Some entries that bind do so weakly or less than the wild type. For part of these data: Sequences can lack the tags named with a protein.

With “HDAC1 (histone deacetylase 1), endogenous, human CD4+ T cells (from UniProt Q13547 1-482)”, the binding result in assay [1] is given as “binds”.

As for “HDAC1, endogenous, mouse CD4+ T cells (from UniProt O09106 1-482)”, the binding entry in assay [2] is reported as “binds”.

As for “Myc-HDAC1 (WT), transfected in HEK293 cells (from UniProt O09106 1-482)”, in assay [3], the binding result is “binds”.
